PubChem BioAssay AID652259 | Drosophila RNAi Screening Center, 2013
The screen tested about 22,000 reagents; this is an unselected part of those that have a named target and a result. Over the whole deposit, 233 (1.1%) are marked active. 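Light values are raw, unnormalised plate reads; the ratio scores behind the reporter calls were not deposited.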 A number with no mark means an inactive call. Names joined by + are all predicted targets of the reagent. No sequences are given here. The record does not give: the amount of reagent, the time to read-out, the dose of the treatment.

Assay: 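Knock-downs that push a Wingless-driven reporter up or down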 (primary screen)
System: Drosophila clone 8 imaginal disc epithelial cells
Reagent: long dsRNA against Drosophila genes
Challenge: pathway stimulated by co-transfected Wingless expression plasmid
Detection: 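Firefly luciferase from a tcf-site Wingless reporter, measured alongside co-transfected Renilla luciferase that tracks transfection; pathway stimulated by a Wingless plasmid; the firefly-to-Renilla ratio is not deposited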
Reading the numbers: firefly reporter light: higher = more Wg reporter light, before normalisation; Renilla control light: higher = more transfected or surviving cells
Call rule: 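Strong candidates differ from their plate mean by at least two out of four per-plate statistical tests; weak candidates meet just one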
Calls: active = candidate regulator (raises or lowers reporter); inactive = not a candidate

Target gene | dsRNA | reporter change call, replicate 1 | firefly reporter light, replicate 1 | firefly reporter light, replicate 2 | Renilla control light, replicate 1 | Renilla control light, replicate 2
Fadd | DRSC14122 | – | 31755 | – | 6344 | –
CG32240 | DRSC08093 | – | 3133 | – | 1783 | –
nAChRalpha6 | DRSC01096 | – | 19561 | – | 7497 | –
nAChRalpha6 | DRSC01098 | – | 17770 | – | 4448 | –
nAChRalpha6 | DRSC02738 | – | 8432 | – | 4633 | –
Lint-O | DRSC18468 | – | 20934 | – | 13492 | –
CG15602 | DRSC19671 | – | 21442 | – | 8322 | –
Pof | DRSC04405 | – | 8480 | – | 2187 | –
CG43124 | DRSC13867 | – | 5667 | – | 2129 | –
CG3817 | DRSC15515 | – | 6640 | – | 2087 | –
CG30268 | DRSC21983 | – | 5.42e5 | 5.60e5 | 2.29e5 | 2.90e5
CG14294 | DRSC14774 | – | 14371 | – | 2027 | –
FoxP | DRSC15159 | – | 12995 | – | 2823 | –
FoxP | DRSC21961 | – | 3.67e5 | 4.40e5 | 1.53e5 | 1.91e5
CG42246 | DRSC17520 | – | 3978 | – | 1290 | –
Mpc1 | DRSC14770 | – | 3377 | 6140 | 1504 | 1522
dre4 | DRSC08714 | Wg reporter activity raised | 13284 | – | 2800 | –
CG32040 | DRSC08981 | – | 4070 | – | 914 | –
CG32040 | DRSC22459 | – | 4.36e5 | 4.11e5 | 1.65e5 | 1.15e5
CG9406 | DRSC04552 | – | 2981 | 9351 | 660 | 4192
tok | DRSC17087 | – | 2372 | 4640 | 1152 | 1893
CG31373 | DRSC16052 | – | 19210 | – | 4116 | –
mmd | DRSC19672 | – | 25760 | – | 8061 | –
mmd | DRSC19673 | – | 17389 | – | 9040 | –
mmd | DRSC20161 | – | 14323 | – | 9175 | –
Mal-A1 | DRSC07461 | – | 2408 | 7021 | 598 | 2307
tyf | DRSC18382 | – | 20727 | – | 8880 | –
PMP34 | DRSC21939 | – | 6.67e5 | 6.17e5 | 3.06e5 | 3.26e5
CG10073 | DRSC05961 | – | 6117 | – | 2109 | –
Ir10a | DRSC18891 | – | 2903 | – | 1123 | –
Ir10a | DRSC19478 | – | 14759 | – | 7696 | –
Ir10a | DRSC19479 | – | 18477 | – | 8274 | –
PyK | DRSC16806 | – | 34234 | – | 6032 | –
Cpr30B | DRSC02728 | – | 3680 | 10220 | 1120 | 4263

Next part (2 carried over from the part before).
Target gene | dsRNA | reporter change call, replicate 1 | firefly reporter light, replicate 1 | firefly reporter light, replicate 2 | Renilla control light, replicate 1 | Renilla control light, replicate 2
PyK | DRSC16806 | – | 34234 | – | 6032 | –
Cpr30B | DRSC02728 | – | 3680 | 10220 | 1120 | 4263
CG9691 | DRSC18441 | – | 21400 | – | 9691 | –
GluRIIC | DRSC00642 | – | 5475 | – | 2649 | –
CG42327 | DRSC14936 | – | 22522 | – | 3045 | –
CG42327 | DRSC14937 | – | 24464 | – | 5366 | –
CG42445 | DRSC10858 | – | 9212 | – | 2560 | –
Mur89F | DRSC15544 | – | 15257 | – | 3570 | –
CG33272 | DRSC09116 | – | 2496 | – | 1287 | –
CG9166 | DRSC07842 | – | 4219 | – | 1980 | –
Acat2 | DRSC08630 | – | 9792 | – | 4122 | –
CG12224 | DRSC14480 | – | 17596 | – | 5317 | –
bsf | DRSC02035 | – | 10717 | – | 3347 | –
CG16826 | DRSC02527 | – | 1869 | 5364 | 1108 | 2816
Acp95EF + Spase22-23 | DRSC14102 | – | 18834 | – | 18588 | –
CG9101 | DRSC20152 | – | 14243 | – | 10976 | –
Atg9 | DRSC06848 | – | 9258 | – | 2820 | –
CG14341 | DRSC00371 | – | 2400 | 7973 | 1632 | 3761
fbl | DRSC11886 | – | 14698 | – | 5072 | –
CG18094 | DRSC02655 | – | 1897 | 6760 | 612 | 2072
CG1227 | DRSC12534 | – | 5397 | – | 2336 | –
CG14247 | DRSC14742 | – | 9419 | – | 3536 | –
TwdlH | DRSC14735 | – | 9283 | – | 4800 | –
CG34462 | DRSC10768 | – | 1192 | 8307 | 1049 | 3685
so | DRSC07693 | – | 18589 | – | 5077 | –
CG4537 | DRSC02756 | – | 3411 | 7803 | 1107 | 3456
CG14024 | DRSC00868 | – | 26418 | – | 12613 | –
CG14024 | DRSC02354 | – | 8936 | – | 4118 | –
CG14499 | DRSC06470 | – | 6048 | – | 2387 | –
CG2691 | DRSC19866 | – | 1957 | 5527 | 956 | 2144
CG1647 | DRSC15134 | – | 2262 | 8828 | 752 | 1872
Femcoat | DRSC18061 | – | 20096 | – | 9255 | –
CG3544 | DRSC00613 | – | 8058 | – | 3616 | –
Upf1 | DRSC19667 | – | 2900 | 6794 | 1248 | 2865
Cyp6g1 | DRSC07386 | – | 7499 | – | 2176 | –
CG33178 | DRSC19950 | – | 23825 | – | 11076 | –
robl37BC | DRSC02472 | – | 2784 | 9649 | 992 | 3569
CG11898 | DRSC14432 | – | 12358 | 6.11e5 | 4345 | 3.23e5
Syt12 | DRSC19359 | – | 10469 | – | 8899 | –
Sin3A | DRSC07552 | – | 9667 | – | 1851 | –
sub | DRSC06125 | – | 15696 | – | 3991 | –
